Results reported in PMC8928434, “Production of Putrescine and Cadaverine by Paucilactobacillus wasatchensis” (Frontiers in Microbiology, 2022).

Test system: Odc2_C19 (Odc2)
Conditions: 50 mM phosphate pH 5.5, 50 μM pyridoxal 5'-phosphate, 37°C; substrate 1-50 mM
Excerpt: HPLC of o-phthalaldehyde-derivatized amine product (decarboxylation), Michaelis-Menten fit on Odc2_C19 (Odc2)

## NCCC[C@H](N)C(=O)O [L-ornithine]
  Km: 4.9 ± 0.9 mM
